Values joined by “and” are separate entries in the source; they are usually repeats but may differ in a detail not shown here. Identical values can stand only once. Among all 320,000 compounds or so, about 22,000 (6.9%) were called active. The inconclusive results got no clear call from the source; some entries with a clear call stand among them for comparison. Calls follow the shape of the dose curve; as a rule, active = well fitted inhibition curve with a large enough effect; inconclusive = small, poorly fitted or top-dose-only effect, or another doubt; inactive = no such curve, though single readings can be large or run the other way. Potencies of inconclusive entries are doubtful fits and often do not repeat.
Test: Primary qHTS for delayed death inhibitors of the malarial parasite plastid, 96 hour incubation
Settings: P. falciparum luciferase reporter growth; series mostly up to 28.7 µM; activity change, negative = inhibition: at the top concentration
In short: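 P. falciparum expressing integrated firefly luciferase, in erythrocytes at 2% hematocrit, 0.05% parasitemia, incubated with compounds 96 h at 37 C, 5% CO2. Growth inhibition read as loss of luminescence; two-generation exposure targets delayed-death apicoplast inhibitors.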
% is scaled to controls: 0 for no effect and ±100 for the full control effect; potency is read from the fitted curve at half-maximal effect.

Compound | activity change, negative = inhibition | Potency
C/C(=C\C(=O)Nc1nccs1)c1ccccc1 | inactive: 37.3% | –
O=C(COC(=O)C1(c2ccccc2F)CCCC1)N1CCN(C(=O)c2ccco2)CC1 | – | inconclusive: 10.4 µM [inhibitor, single point]
Cc1ccc(SCC(=O)Nc2ccc3c(c2)OCCO3)cc1 | – | inconclusive: 5.22 µM [inhibitor, partial curve]
CCc1nc(SCC(=O)c2ccccc2)c2ccccc2n1 | – | inconclusive: 3.7 µM [inhibitor, partial curve, poor fit]
CCn1c(SCC(=O)Nc2sc3c(c2C#N)CCC(C(C)(C)C)C3)nnc1-c1ccco1 (stereo unspecified) | – | inconclusive: 0.0026 µM [inhibitor, full curve, poor fit]
CCOc1cc(-c2sc(Nc3cc(C)ccc3OC)n[n+]2-c2ccccc2)ccc1OC | – | inconclusive: 11.7 µM [inhibitor, single point]
O=S(=O)(NC1CC1)c1ccc(S(=O)(=O)N2CCCC(c3nc(-c4cccnc4)no3)C2)cc1 (stereo unspecified) | inactive: -2.77% | –
O=C1C=C(c2ccc(Oc3ccccc3)cc2)C[C@@H](c2ccc(Cl)cc2)C1 | – | inconclusive: 4.65 µM [inhibitor, single point]
CCCn1c(N)c(C(=S)NC(=O)C2CC2)c(=O)n(C)c1=O | inactive: 7.04% | –
COc1cccc(C(=O)Nc2cccc3cccnc23)c1OC | inactive: 133% | –
CCn1c(NC(=O)c2cccc(Cn3cc(Cl)cn3)c2)nc2ccccc21 | – | inconclusive: 11.7 µM [inhibitor, single point]
Cc1ccc(OCC(=O)N2CCCCC2)c(Br)c1 | inactive: 19.9% | –
Cc1ccc(NC(=O)c2ccc(Cl)c(S(=O)(=O)N3CCCCCC3)c2)nc1 | – | inconclusive: 18.5 µM [inhibitor, single point]
[O-]/C(=C(\C(=S)NCc1ccc2c(c1)OCO2)[n+]1ccccc1)c1ccc(Cl)s1 | – | inconclusive: 10.4 µM [inhibitor, single point]
NC(=O)c1cccnc1Nc1cccc([N+](=O)[O-])c1 | inactive: 160% | –
CCOc1ccc(C(c2c(NC(=O)c3ccco3)sc(C)c2C)N2CCOCC2)cc1 (stereo unspecified) | – | active: 13.1 µM
Cc1ccc(NC(=O)Nc2ccc3c(c2)OCO3)nc1 | inactive: 9.62% | –
Cc1cccc(NC(=O)N2CCCCCC2)c1 | – | inconclusive: 2.08 µM [inhibitor, single point]
COc1ccccc1OCCNC(=O)Nc1ccc(Br)cc1 | inactive: 13.2% | –
COc1ccc2c(C)cc(N3CCCCCC3)nc2c1 | – | inconclusive: 13.1 µM [inhibitor, single point]
CC(C)CCC1=NN(C(=O)c2ccco2)C(O)(C(F)(F)F)C1 (stereo unspecified) | – | inconclusive: 10.4 µM [inhibitor, single point]
COc1ccc2[nH]c(C(=O)N3CCC(n4nccc4NC(=O)C4CC4)CC3)c(C)c2c1 | inactive: -16.9% | –
Clc1ccc(C(c2ccccc2)N2CCN(c3ccccn3)CC2)cc1 (stereo unspecified) | – | active: 6.57 µM

Compound | activity change, negative = inhibition | Potency
CC1CC(=O)Nc2ccccc2N1C(=O)COc1ccc2cc(Br)ccc2c1 (stereo unspecified) | inactive: -10.8% | –
CC(=O)Nc1ccc(Br)c2ccccc12 | – | inconclusive: 16.5 µM [inhibitor, single point]
CCc1ccc(CCC(=O)Nc2ccc(Br)cc2)o1 | – | inconclusive: 18.5 µM [inhibitor, single point]
CCCCOc1cccc(/C=C(\C#N)C(=O)NC2CC2)c1 | inactive: 83.3% | –
COC(=O)c1ccc(N2CCOCC2)c(NC(=O)c2cccnc2)c1 | inactive: -5.45% | –
CCN(CC)C(=O)c1ccc2c(=O)n(Cc3cccc(Br)c3)c(=S)[nH]c2c1 | inactive: -3.13% | –
CCOC(=O)CSc1nc(C)c2ccc(C)cc2n1 | – | inconclusive: 18.5 µM [inhibitor, single point]
Cc1cccc(NC(=O)NCCN2C(=O)C3C4C=CC(C4)C3C2=O)c1 (stereo unspecified) | – | active: 11.7 µM
COc1ccc(-c2cc(C(=O)N3CCN(c4ncccn4)CC3)c3ccccc3n2)cc1 | inactive: -23.6% | –
Cc1cccc(Nc2nc(N)c([N+](=O)[O-])c(N3CCC(C)CC3)n2)c1 | – | inconclusive: 18.5 µM [inhibitor, single point]
CCOc1ccc(NC(=O)CN(c2ccc(OCC)cc2)S(=O)(=O)c2c(C)[nH]c(=O)[nH]c2=O)cc1 | inactive: 7.29% | –
CCOC(=O)c1[nH]c2ccc(Br)cc2c1NC(=O)CCN1CCOCC1 | – | inconclusive: 16.5 µM [inhibitor, partial curve, poor fit]
Cc1ccc(N(CC(O)COCc2ccco2)S(=O)(=O)c2ccc(C)cc2)cc1 (stereo unspecified) | – | inconclusive: 18.5 µM [inhibitor, single point]
CC(=O)N1c2ccc(S(=O)(=O)N3CCCC3)cc2CC1C(=O)Nc1cc(C)cc(C)c1 (stereo unspecified) | – | inconclusive: 11.7 µM [inhibitor, single point]
CC1CCCCN1C(=O)c1cccc(NC2=C(Cl)C(=O)N(Cc3ccccc3)C2=O)c1 (stereo unspecified) | – | inconclusive: 18.5 µM [inhibitor, single point]
O=C(COC(=O)c1c[nH]c2ccccc12)Nc1ccc(F)cc1 | inactive: -8.33% | –
N#CCCn1c(O)c(N=NC(=O)CNC(=O)c2cccs2)c2ccccc21 | – | inconclusive: 0.0415 µM [inhibitor, full curve, poor fit]
CC(NC(=O)c1cccc(OC2CCN(C(=O)C3CC3)CC2)c1)c1ccc(F)cc1 (stereo unspecified) | – | inconclusive: 18.5 µM [inhibitor, single point]
Cc1ccc(C(=O)N2CCN(c3ccc(NC(=O)c4ccc5c(c4)OCCO5)cc3)CC2)cc1 | – | inconclusive: 10.4 µM [inhibitor, single point]
O=C(Nc1cccc(Cl)c1N1CCCC1)c1ccco1 | inactive: -1.29% | –
COc1cc(C(=O)Nc2cccc(-c3nc4ncccc4o3)c2C)cc(OC)c1OC | – | inconclusive: 1.85 µM [inhibitor, partial curve, poor fit]
C[C@]12C[C@H](O)[C@H]3[C@@H](CCC4=CC(=O)CC[C@@]43C)[C@@H]1CC[C@@H]2C(=O)CO | – | inconclusive: 9.53 µM [inhibitor, partial curve] and inconclusive: 14.7 µM [inhibitor, partial curve]
CCC(C)NC(=O)c1ccc2c(Cl)c3c(nc2c1)CCC3 (stereo unspecified) | inactive: 5.75% | –

Reference: PubChem BioAssay AID504834 (National Center for Advancing Translational Sciences (NCATS), 2011)
